Values of other authors in patent US7183293B2, “Ether derivatives useful as inhibitors of PDE4 isozymes” (Pfizer Inc., priority 2001, dated 2007).

Conditions: human, in vivo

- oral absorption: good oral absorption
SMILES: COc1ccc(C(=O)Nc2c(Cl)cncc2Cl)c2cccnc12 [Example D4418]
